Test results: patent publication US8119645B2, “Fungicide hydroximoyl-tetrazole derivatives” (Bayer Cropscience AG, priority 2006, dated 2012)
Some of these results come from one statement about several compounds together.

Key:
Peronospora parasitica = experiment: In vivo test on Peronospora parasitica (crucifer downy mildew), cabbage plants; conditions: dose of 500 ppm, preventive spray 24 hours before contamination, grading 5 days after contamination
Plasmopara viticola = experiment: In vivo test on Plasmopara viticola (vine downy mildew), vine plants; conditions: dose of 500 ppm, preventive spray 24 hours before contamination, grading 7 to 8 days after contamination
Phytophthora infestans = assay type: in vivo; conditions: dose of 500 ppm; tomato plants, preventive spray 24 hours before contamination; grading 5 days after contamination

Compound	good protection (Peronospora parasitica)	good protection (Plasmopara viticola)	good protection (Phytophthora infestans)
Cc1nnnn1C(=NOCc1csc(NC(=O)NC2CCCCC2)n1)c1ccsc1 [Compound 25]	at least 70%		
CCc1nnnn1C(=NOCc1csc(NC(=O)C(C)(C)C)n1)c1ccsc1 [Compound 42]	at least 70%	at least 70%	
CCCCCC(=O)Nc1cccc(CON=C(c2ccc(C)s2)n2nnnc2C)n1 [Compound 127]	at least 70%	at least 70%	at least 70%
CCCCCC(=O)Nc1nc(CON=C(c2ccc(C)s2)n2nnnc2C)cs1 [Compound 120]	at least 70%		
Cc1ccc(C(=NOCc2csc(NC(=O)Cc3ccccc3)n2)n2nnnc2C)s1 [Compound 116]	at least 70%	at least 70%	
C=CCC(=O)Nc1nc(CON=C(c2ccc(C)o2)n2nnnc2C)cs1 [Compound 69]	at least 70%		
Cc1ccc(C(=NOCc2csc(NC(=O)C3CC3)n2)n2nnnc2C)s1 [Compound 119]	at least 70%	at least 70%	
CCCCCC(=O)Nc1cccc(CON=C(c2ccsc2Cl)n2nnnc2C)n1 [Compound 3]	at least 70%		at least 70%
Cc1ccc(C(=NOCc2csc(NC(=O)COCc3ccccc3)n2)n2nnnc2C)o1 [Compound 67]	at least 70%	at least 70%	
CCc1nnnn1C(=NOCc1csc(NC(=O)C(C)C)n1)c1ccsc1 [Compound 43]	at least 70%	at least 70%	
Cc1nnnn1C(=NOCCc1csc(N)n1)c1ccsc1 [Compound 50]	at least 70%		
Cc1nnnn1C(=NOCc1csc(NC(=O)C2CCCC2)n1)c1ccsc1 [Compound 39]	at least 70%		
CCCCCC(=O)Nc1nc(CON=C(c2ccc(Br)s2)n2nnnc2C)cs1 [Compound 92]	at least 70%	at least 70%	
Cc1ccc(C(=NOCc2csc(NC(=O)C3CCCC3)n2)n2nnnc2C)o1 [Compound 62]	at least 70%		
Cc1ccc(C(=NOCc2csc(NC(=O)C(C)(C)C)n2)n2nnnc2C)s1 [Compound 115]	at least 70%		
Cc1nnnn1C(=NOCc1csc(NC(=O)CCCCl)n1)c1ccsc1Cl [Compound 5]	at least 70%		
CCCCCCCCNC(=O)Nc1nc(CON=C(c2ccsc2)n2nnnc2C)cs1 [Compound 23]	at least 70%		
CCCCCC(=O)Nc1nc(CON=C(c2ccsc2Cl)n2nnnc2C)cs1 [Compound 13]	at least 70%		
Cc1nnnn1C(=NOCc1cccc(NC(=O)C(C)(C)C)n1)c1ccsc1 [Compound 37]	at least 70%		
Cc1ccc(C(=NOCc2csc(NC(=O)c3ccccc3)n2)n2nnnc2C)o1 [Compound 63]	at least 70%		
Cc1nnnn1C(=NOCc1cccc(NC(=O)c2ccccc2)n1)c1ccsc1 [Compound 38]	at least 70%		at least 70%
Cc1ccc(C(=NOCc2cccc(NC(=O)OCCc3ccccc3)n2)n2nnnc2C)o1 [Compound 75]	at least 70%		
COCCOCC(=O)Nc1nc(CON=C(c2ccc(C)s2)n2nnnc2C)cs1 [Compound 129]	at least 70%		

Compound	good protection (Peronospora parasitica)	good protection (Plasmopara viticola)	good protection (Phytophthora infestans)
Cc1nnnn1C(=NOCc1csc(NC(=O)CCCc2ccccc2)n1)c1ccc(Br)s1 [Compound 88]	at least 70%	at least 70%	
Cc1nnnn1C(=NOCc1cccc(NC(=O)c2ccccc2)n1)c1ccsc1Cl [Compound 1]	at least 70%		
Cc1nnnn1C(=NOCc1csc(NC(=O)OCc2ccccc2)n1)c1ccsc1 [Compound 46]	at least 70%		
Cc1ccc(C(=NOCc2csc(NC(=O)C(C)C)n2)n2nnnc2C)o1 [Compound 66]	at least 70%		
Cc1nnnn1C(=NOCc1csc(NC(=O)COCc2ccccc2)n1)c1ccc(Br)s1 [Compound 95]	at least 70%	at least 70%	at least 70%
COCCOC(=O)Nc1cccc(CON=C(c2ccc(C)o2)n2nnnc2C)n1 [Compound 73]	at least 70%		
COCCOC(=O)Nc1nc(CON=C(c2ccsc2)n2nnnc2C)cs1 [Compound 49]	at least 70%		
CCCCCC(=O)Nc1nc(CON=C(c2ccc(Cl)s2)n2nnnc2C)cs1 [Compound 106]	at least 70%	at least 70%	
Cc1nnnn1C(=NOCc1csc(NC(=O)NC2CCCC2)n1)c1ccsc1 [Compound 28]	at least 70%	at least 70%	
Cc1nnnn1C(=NOCc1csc(NC(=O)C(C)C)n1)c1ccsc1 [Compound 31]	at least 70%		
Cc1nnnn1C(=NOCc1csc(NC(=O)C2CCCC2)n1)c1ccc(Br)s1 [Compound 90]	at least 70%	at least 70%	
Cc1ccc(C(=NOCc2cccc(NC(=O)NCCc3ccccc3)n2)n2nnnc2C)s1 [Compound 128]	at least 70%	at least 70%	
Cc1nnnn1/C(=N/OCc1csc(NC(=O)C(C)(C)C)n1)c1ccsc1 [Compound 18, O-(2-tert-Butylcarbonylamino-1,3-thiazol-4-yl)methyl-(thien-3-yl)-(5-methyltetrazol-1-yl)methanone oxime]			at least 70%
Cc1nnnn1C(=NOCc1csc(NC(=O)OCCc2ccccc2)n1)c1ccsc1 [Compound 44]	at least 70%		
COCCOCC(=O)Nc1nc(CON=C(c2ccc(Br)s2)n2nnnc2C)cs1 [Compound 98]	at least 70%		
COCCOC(=O)Nc1cccc(CON=C(c2ccsc2Cl)n2nnnc2C)n1 [Compound 17]	at least 70%		
COCCOC(=O)Nc1nc(CON=C(c2ccc(C)s2)n2nnnc2C)cs1 [Compound 130]	at least 70%		
CCCC(=O)Nc1nc(CON=C(c2ccc(C)s2)n2nnnc2C)cs1 [Compound 114]	at least 70%		
Cc1nnnn1C(=NOCc1csc(NC(=O)Cc2ccccc2)n1)c1ccsc1 [Compound 32]	at least 70%		
Cc1ccc(C(=NOCc2cccc(N)n2)n2nnnc2C)o1 [Compound 72]	at least 70%		
CCCCCC(=O)Nc1nc(CON=C(c2ccc(C)o2)n2nnnc2C)cs1 [Compound 64]	at least 70%		
CCCCCC(=O)Nc1cccc(CON=C(c2ccsc2)n2nnnc2C)n1 [Compound 36]	at least 70%		at least 70%
COCCOC(=O)Nc1nc(CON=C(c2ccc(Cl)s2)n2nnnc2C)cs1 [Compound 112]	at least 70%		

Compound	good protection (Peronospora parasitica)	good protection (Plasmopara viticola)	good protection (Phytophthora infestans)
CCCCCC(=O)Nc1nc(CON=C(c2ccsc2)n2nnnc2C)cs1 [Compound 30]	at least 70%		
CCCCCOC(=O)Nc1cccc(CON=C(c2ccc(C)o2)n2nnnc2C)n1 [Compound 74]	at least 70%		
Cc1ccc(C(=NOCc2csc(NC(=O)NCCc3ccccc3)n2)n2nnnc2C)s1 [Compound 118]	at least 70%		
Cc1nnnn1C(=NOCc1csc(NC(=O)CCCCl)n1)c1ccsc1 [Compound 34]	at least 70%		
Cc1nnnn1C(=NOCc1csc(NC(=O)NC(C)C)n1)c1ccsc1 [Compound 26]	at least 70%		
Cc1nnnn1C(=NOCCc1csc(NC(=O)C(C)(C)C)n1)c1ccsc1 [Compound 51]	at least 70%		
COCCOCC(=O)Nc1nc(CON=C(c2ccc(Cl)s2)n2nnnc2C)cs1 [Compound 111]	at least 70%		
C=CCNC(=O)Nc1nc(CON=C(c2ccsc2)n2nnnc2C)cs1 [Compound 27]	at least 70%		
Cc1ccc(C(=NOCc2csc(NC(=O)C3CC3)n2)n2nnnc2C)o1 [Compound 68]	at least 70%		
Cc1nnnn1C(=NOCc1csc(NC(=O)Cc2ccccc2)n1)c1ccc(Br)s1 [Compound 93]	at least 70%		
COCCOCC(=O)Nc1nc(CON=C(c2ccsc2)n2nnnc2C)cs1 [Compound 48]	at least 70%		
Cc1ccc(C(=NOCc2csc(NC(=O)Cc3ccccc3)n2)n2nnnc2C)o1 [Compound 65]	at least 70%		
Cc1nnnn1C(=NOCc1csc(NC(=O)OCCc2ccccc2)n1)c1ccc(Cl)s1 [Compound 110]	at least 70%	at least 70%	
Cc1ccc(C(=NOCc2csc(NC(=O)OCCc3ccccc3)n2)n2nnnc2C)s1 [Compound 123]	at least 70%		
Cc1nnnn1C(=NOCc1cccc(NC(=O)C(C)(C)C)n1)c1ccsc1Cl [Compound 2]	at least 70%		
Cc1nnnn1C(=NOCc1csc(NC(=O)CCCc2ccccc2)n1)c1ccc(Cl)s1 [Compound 107]	at least 70%		
CCCCCOC(=O)Nc1cccc(CON=C(c2ccsc2Cl)n2nnnc2C)n1 [Compound 16]	at least 70%	at least 70%	
Cc1ccc(C(=NOCc2cccc(NC(=O)OCCc3ccccc3)n2)n2nnnc2C)s1 [Compound 125]	at least 70%	at least 70%	
Cc1nnnn1/C(=N/OCc1csc(N)n1)c1ccsc1 [Compound 20, O-(2-Amino-1,3-thiazol-4-yl)methyl-(thien-3-yl)-(5-methyltetrazol-1-yl)methanone oxime]	at least 70%		
Cc1nnnn1C(=NOCc1csc(NC(=O)CCc2ccccc2)n1)c1ccsc1 [Compound 33]	at least 70%		
Cc1nnnn1C(=NOCc1csc(NC(=O)C2CC2)n1)c1ccc(Br)s1 [Compound 96]	at least 70%	at least 70%	
C=CCC(=O)Nc1nc(CON=C(c2ccc(Br)s2)n2nnnc2C)cs1 [Compound 97]	at least 70%	at least 70%	
